PubChem BioAssay AID1508597 | Cure First – 2020
Test: 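Genes whose silencing sensitises or protects ovarian cancer cells against rucaparib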 (primary screen). Cells: human ovarian carcinoma lines grown from tumours: OCI-P5x (papillary serous) and OCI-C5x (clear cell). Reagents: siRNA pool against human genes, 1.25 pmol siRNA per well. Timing: 72 h or 96 h, depending on the cell culture. Challenge: rucaparib 20 µM (about IC30) or vehicle, present until read-out. Rucaparib or vehicle: Rucaparib. Cell line: OCI-C5x (clear cell). Read-out: 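Luminescent ATP-based viability assay read 72 or 96 h after transfection, depending on culture, given as normalised percent viability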. Scale: viability, normalised: higher = more viable cells remaining. Call rule: 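a well counts as a hit if its normalised viability is under 80 percent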. Calls: active = viability under 80%; inactive = viability 80% or more.
This is an unselected part of the about 2,100 reagents, in one setting of the screen. 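Calls flag viability under 80% in either arm, not effects specific to rucaparib; the reference for percent is not stated.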 Not stated in the record: the 100% reference.

KDM5C (lysine demethylase 5C), technical replicate 1 — viability, normalised (%): 23.7; Call: active
KDM5C (lysine demethylase 5C), technical replicate 2 — viability, normalised (%): 22.7; Call: active
KDM5C (lysine demethylase 5C), technical replicate 3 — viability, normalised (%): 18.6; Call: active
LCK (LCK proto-oncogene, Src family tyrosine kinase), technical replicate 1 — viability, normalised (%): 52.9; Call: active
LCK (LCK proto-oncogene, Src family tyrosine kinase), technical replicate 2 — viability, normalised (%): 60.4; Call: active
LCK (LCK proto-oncogene, Src family tyrosine kinase), technical replicate 3 — viability, normalised (%): 59.4; Call: active
RIPK4 (receptor interacting serine/threonine kinase 4), technical replicate 1 — viability, normalised (%): 62.3; Call: active
RIPK4 (receptor interacting serine/threonine kinase 4), technical replicate 2 — viability, normalised (%): 65.3; Call: active
RIPK4 (receptor interacting serine/threonine kinase 4), technical replicate 3 — viability, normalised (%): 71.3; Call: active
TSPYL1 (TSPY like 1), technical replicate 1 — viability, normalised (%): 64; Call: active
TSPYL1 (TSPY like 1), technical replicate 2 — viability, normalised (%): 58.1; Call: active
TSPYL1 (TSPY like 1), technical replicate 3 — viability, normalised (%): 39.9; Call: active
CRAMP1 (cramped chromatin regulator 1), technical replicate 1 — viability, normalised (%): 57.9; Call: active
CRAMP1 (cramped chromatin regulator 1), technical replicate 2 — viability, normalised (%): 65.9; Call: active
CRAMP1 (cramped chromatin regulator 1), technical replicate 3 — viability, normalised (%): 38; Call: active
PBRM1 (polybromo 1), technical replicate 1 — viability, normalised (%): 44.7; Call: active
PBRM1 (polybromo 1), technical replicate 2 — viability, normalised (%): 32.2; Call: active
PBRM1 (polybromo 1), technical replicate 3 — viability, normalised (%): 48; Call: active
PMS1 (PMS1 homolog 1, mismatch repair system component), technical replicate 1 — viability, normalised (%): 49.2; Call: active
PMS1 (PMS1 homolog 1, mismatch repair system component), technical replicate 2 — viability, normalised (%): 63.8; Call: active
PMS1 (PMS1 homolog 1, mismatch repair system component), technical replicate 3 — viability, normalised (%): 60.4; Call: active

Continued, starting with the last 2 of the part before.
PMS1 (PMS1 homolog 1, mismatch repair system component), technical replicate 2 — viability, normalised (%): 63.8; Call: active
PMS1 (PMS1 homolog 1, mismatch repair system component), technical replicate 3 — viability, normalised (%): 60.4; Call: active
SCYL2 (SCY1 like pseudokinase 2), technical replicate 1 — viability, normalised (%): 46.3; Call: active
SCYL2 (SCY1 like pseudokinase 2), technical replicate 2 — viability, normalised (%): 46.5; Call: active
SCYL2 (SCY1 like pseudokinase 2), technical replicate 3 — viability, normalised (%): 46.5; Call: active
ZNF451 (zinc finger protein 451), technical replicate 1 — viability, normalised (%): 48.8; Call: active
ZNF451 (zinc finger protein 451), technical replicate 2 — viability, normalised (%): 55; Call: active
ZNF451 (zinc finger protein 451), technical replicate 3 — viability, normalised (%): 40.7; Call: active
PHF19 (PHD finger protein 19), technical replicate 1 — viability, normalised (%): 38; Call: active
PHF19 (PHD finger protein 19), technical replicate 2 — viability, normalised (%): 47.6; Call: active
PHF19 (PHD finger protein 19), technical replicate 3 — viability, normalised (%): 34.2; Call: active
F10 (coagulation factor X), technical replicate 1 — viability, normalised (%): 45.7; Call: active
F10 (coagulation factor X), technical replicate 2 — viability, normalised (%): 24; Call: active
F10 (coagulation factor X), technical replicate 3 — viability, normalised (%): 39.5; Call: active
